No constants are given. Whether binding was seen depends on the method and setting. In cells and extracts the contact can be indirect.
Target: T1, biotinylated LME-mono
T1 sequence (peptide, biotin (position not stated)): PKLRMKE
Experiment: pull-down; 7WD10 cells treated with biotinylated LME-tet (50 µM) or LME-mono (200 µM) for 30 min at 37 °C, lysed; lysates with streptavidin beads 24 h at 4 °C; western blot; only the target purified

binding: no binding (tested: 200 µM LME-mono)
Substance: C-terminal fragment β (C99) (human) (domain or fragment)

From PMC10082830, “A tailored tetravalent peptide displays dual functions to inhibit amyloid β production and aggregation” (Communications Biology, 2023)
